Source: PubChem BioAssay AID1259275 (Sanger Institute, 2017)
Here is one part, drawn at random, of 794 reagents tested. Over the whole deposit, 13 (1.6%) are marked active. 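Calls mark knock-downs lethal by themselves, not drug synergy; drugs went in a day after transfection, with DMSO as vehicle.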 No viability above 1 is reported: the scale is capped. Further read-outs or replicates are left out here. Not given: the amount of reagent, the time to read-out.

- Screen: 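Kinase and colorectal cancer genes needed for cancer cell survival, with or without drugs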 (primary screen)
- Cell system: COLO320HSR human colorectal cancer cells
- Reagent: siRNA pool against human genes
- Challenge: anchor drug added one day after transfection: BYL719 at 1 µM, cetuximab at 5 µg/ml or trametinib at 10 nM; DMSO as vehicle arm
- Measured: 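Viability averaged over replicates as a fraction of the non-targeting pool, a robust z-score for knock-down alone, and synergy scores with BYL719 (1 µM), cetuximab (5 µg/ml) or trametinib (10 nM)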
- Reading the numbers: robust z-score, siRNA alone: higher = more viable cells; strongly negative means essential; viability, knock-down alone (DMSO): higher = more viable cells; synergy score with BYL719 and synergy score with cetuximab: higher = stronger combined killing with drug
- Rule for the call: 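a gene is called essential when its robust z-score without drug falls below -3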
- Calls: active = essential (siRNA alone); inactive = no change (siRNA alone)

gene	robust z-score, siRNA alone	viability, knock-down alone (DMSO) (fraction of control)	synergy score with BYL719	synergy score with cetuximab	Call
CAMKK1 (calcium/calmodulin dependent protein kinase kinase 1)	0.726	1	-0.22	-0.0893	inactive
AK7 (adenylate kinase 7)	-0.0463	0.93	-0.202	-0.153	inactive
CDC42BPB (CDC42 binding protein kinase beta)	-0.361	0.902	-0.309	-0.0675	inactive
PI4K2A (phosphatidylinositol 4-kinase type 2 alpha)	-0.0942	0.926	-0.0749	-0.118	inactive
MAPK13 (mitogen-activated protein kinase 13)	0.57	0.986	-0.101	-0.0895	inactive
ITSN1 (intersectin 1)	0.0112	0.935	-0.115	-0.0695	inactive
MAGI1	-1.88	0.765	-0.114	-0.175	inactive
MAP3K19 (mitogen-activated protein kinase kinase kinase 19)	-1.28	0.819	-0.00709	-0.147	inactive
CILK1 (ciliogenesis associated kinase 1)	0.143	0.947	-0.058	-0.019	inactive
HIPK4 (homeodomain interacting protein kinase 4)	0.726	1	-0.296	-0.0893	inactive
CAMK2A (calcium/calmodulin dependent protein kinase II alpha)	-0.0659	0.929	-0.163	-0.111	inactive
ACVR1 (activin A receptor type 1)	-0.34	0.904	-0.0758	-0.0643	inactive
MAP3K7 (mitogen-activated protein kinase kinase kinase 7)	0.717	0.999	-0.0931	-0.0901	inactive
PIP4K2B (phosphatidylinositol-5-phosphate 4-kinase type 2 beta)	0.726	1	-0.168	-0.00211	inactive
MAP3K15 (mitogen-activated protein kinase kinase kinase 15)	0.726	1	-0.0565	-0.0363	inactive
KMT2B (lysine methyltransferase 2B)	0.0812	0.942	-0.0443	-0.142	inactive
TEX14 (testis expressed 14, intercellular bridge forming factor)	-0.412	0.897	-0.0717	-0.16	inactive
CDK5R1 (cyclin dependent kinase 5 regulatory subunit 1)	-0.389	0.899	0.0074	-0.000521	inactive
IP6K1 (inositol hexakisphosphate kinase 1)	0.528	0.982	-0.148	-0.106	inactive
MAPK10 (mitogen-activated protein kinase 10)	0.238	0.956	-0.1	-0.0869	inactive

Laid out differently: 3 of the entries above
HIPK4 (homeodomain interacting protein kinase 4): robust z-score, siRNA alone = 0.726; viability, knock-down alone (DMSO) (fraction of control) = 1; synergy score with BYL719 = -0.296; synergy score with cetuximab = -0.0893; Call = inactive
CAMK2A (calcium/calmodulin dependent protein kinase II alpha): robust z-score, siRNA alone = -0.0659; viability, knock-down alone (DMSO) (fraction of control) = 0.929; synergy score with BYL719 = -0.163; synergy score with cetuximab = -0.111; Call = inactive
ACVR1 (activin A receptor type 1): robust z-score, siRNA alone = -0.34; viability, knock-down alone (DMSO) (fraction of control) = 0.904; synergy score with BYL719 = -0.0758; synergy score with cetuximab = -0.0643; Call = inactive
